Data from patent US4340602A, “Compositions inhibiting estrogen sulfotransferase activity” (Wayne State University, priority 1978, dated 1982).

Target: T1, Bovine Adrenal Estrogen Sulfotransferase (Bos taurus, UniProt P19217)
T1 construct: The enzyme was isolated from the bovine adrenals; from tissue; host or cells: bovine adrenals; purified by ammonium sulfate fractionation and chromatography on DEAE-cellulose or DEAE-Sephadex A-50
T1 sequence (P19217 1-295): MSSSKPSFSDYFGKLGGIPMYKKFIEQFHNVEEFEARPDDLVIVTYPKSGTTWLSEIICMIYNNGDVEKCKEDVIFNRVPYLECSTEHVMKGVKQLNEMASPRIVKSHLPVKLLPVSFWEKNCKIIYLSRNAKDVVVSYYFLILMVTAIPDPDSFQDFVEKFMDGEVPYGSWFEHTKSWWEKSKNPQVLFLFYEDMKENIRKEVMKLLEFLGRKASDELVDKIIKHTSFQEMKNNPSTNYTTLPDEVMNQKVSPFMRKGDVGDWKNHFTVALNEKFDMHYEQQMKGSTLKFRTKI
Assay: Inhibition of bovine adrenal estrogen sulfotransferase (estrone sulfurylation)
Format: biochemical
Details: pH 8.1, read-out: Fractional Inhibition (Table II)
Description: Materials are evaluated for activity as estrogen sulfotransferase inhibitors by the method of Rozhin et al, Journal of Biological Chemistry, 252:7214-7220 (October 25, 1977), herein incorporated by reference.
Isolation of Estrogen Sulfotransferase (EC 2.8.2.4). The enzyme was isolated from the bovine adrenals and purified by ammonium sulfate fractionation and column chromatography on DEAE-cellulose or DEAE-SephadexA-50 [Rozhin et al (1974)].
Standard Enzyme Assay. […] After drying the sheet, samples were visualized by spraying with methylene blue (25 mg in 100 ml of 0.05 N H2 SO4), punched out with a cork borer, and counted in 10 ml of dioxane counting liquid. A blank employing a boiled enzyme sample was incubated and the recorded counts were substracted from each determination. […] An enzyme unit was defined as that quantity of enzyme which synthesized 1 nmol of estrone sulfate in 1 min under chosen conditions. […]
Fractional Inhibition. From kinetic experiments, Ki was calculated as described above under "Data Processing" after making replots of slopes (and/or intercepts) versus inhibitor concentration. […] The dashed line represents the relationship between FI and the Ki of pure noncompetitive inhibition derived mathematically in an analogous manner and expressed as [formula] […]

Compound `CC/C(=C(/CC)c1ccc(O)cc1)c1ccc(O)cc1` [Diethylstilbestrol] has an inhibition at 22.2 µM of 34%.
